# The list shows a part of the results.
# B1: SAOUHSC 02783 (Staphylococcus aureus), Q5HD69 (protein)
# chain: MIHSKKLTLGICLVLLIILIVGYVIMTKTNGRNAQIKDTFNQTLKLYPTKNLDDFYDKEGFRDQEFKKGDKGTWIVNSEMVIEPKGKDMETRGMVLYINRNTRTTKGYYFISEMTDDSNGRPKDDEKRYPVKMEHNKIIPTKPLPNDKLKKEIENFKFFVQYGNFKDINDYKDGDISYNPNVPSYSAKYQLNNDDYNVQQLRKRYDIPTKQAPKLLLKGDGDLKGSSVGSRSLEFTFVENKEENIYFTDSVQYTPSEDTRYESN
# Columns and labels:
# Test in all cases: glycan array binding signal (z-score within array); higher = stronger binding
# Settings in all cases: glycan notation: IUPAC condensed, linker removed
# [1] = target: Fuc(a1-2)Gal(b1-4)[Fuc(a1-3)]GlcNAc(b1-2)Man(a1-3)[Fuc(a1-2)Gal(b1-4)[Fuc(a1-3)]GlcNAc(b1-2)Man(a1-6)]Man(b1-4)GlcNAc(b1-4)[Fuc(a1-6)]GlcNAc
# Outline: (§1)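 The binding signal is a Z-score computed within each array and averaged over linkers. Arrays of the same protein sequence at different concentrations or buffers were also averaged together. Data originate from 3228 arrays in the Consortium for Functional Glycomics database, kept only where the protein sequence was available.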
# [2] = target: Fuc(a1-2)Gal(b1-4)[Fuc(a1-3)]GlcNAc(b1-2)[Fuc(a1-2)Gal(b1-4)[Fuc(a1-3)]GlcNAc(b1-4)]Man(a1-3)[Fuc(a1-2)Gal(b1-4)[Fuc(a1-3)]GlcNAc(b1-2)Man(a1-6)]Man(b1-4)GlcNAc(b1-4)GlcNAc
# Outline: as §1
# [3] = target: Fuc(a1-2)Gal(b1-4)[Fuc(a1-3)]GlcNAc(b1-3)Gal(b1-4)[Fuc(a1-3)]GlcNAc
# Outline: as §1
# [4] = target: Fuc(a1-2)Gal(b1-4)[Fuc(a1-3)]GlcNAc(b1-3)Gal(b1-4)[Fuc(a1-3)]GlcNAc(b1-3)Gal(b1-4)[Fuc(a1-3)]GlcNAc
# Outline: as §1
# [5] = target: Fuc(a1-2)Gal(b1-4)[Fuc(a1-3)]GlcNAc(b1-3)GalNAc
# Outline: as §1
# [6] = target: Fuc(a1-2)Gal(b1-4)[Fuc(a1-3)]GlcNAc(b1-3)[Neu5Ac(a2-6)Gal(b1-4)GlcNAc(b1-6)]Gal(b1-4)Glc
# Outline: as §1
# [7] = target: Fuc(a1-2)Gal3S(b1-4)GlcNAc
# Outline: as §1
# [8] = target: Fuc(a1-2)Gal6S(b1-3)GlcNAc
# Outline: as §1
# [9] = target: Fuc(a1-2)Gal6S(b1-3)GlcNAc6S
# Outline: as §1
# [10] = target: Fuc(a1-2)Gal6S(b1-4)Glc
# Outline: as §1
# [11] = target: Fuc(a1-2)Gal6S(b1-4)Glc6S
# Outline: as §1
# [12] = target: Fuc(a1-2)[Gal(a1-3)]Gal
# Outline: as §1
# [13] = target: Fuc(a1-2)[Gal(a1-3)]Gal(b1-3)GalNAc
# Outline: as §1
# [14] = target: Fuc(a1-2)[Gal(a1-3)]Gal(b1-3)GalNAc(b1-3)Gal(a1-4)Gal(b1-4)Glc
# Outline: as §1
# [15] = target: Fuc(a1-2)[Gal(a1-3)]Gal(b1-3)GlcNAc
# Outline: as §1
# [16] = target: Fuc(a1-2)[Gal(a1-3)]Gal(b1-3)GlcNAc(b1-2)Man(a1-3)[Fuc(a1-2)[Gal(a1-3)]Gal(b1-3)GlcNAc(b1-2)Man(a1-6)]Man(b1-4)GlcNAc(b1-4)GlcNAc
# Outline: as §1
# [17] = target: Fuc(a1-2)[Gal(a1-3)]Gal(b1-3)GlcNAc(b1-2)Man(a1-3)[Fuc(a1-2)[Gal(a1-3)]Gal(b1-3)GlcNAc(b1-2)Man(a1-6)]Man(b1-4)GlcNAc(b1-4)[Fuc(a1-6)]GlcNAc
# Outline: as §1
# [18] = target: Fuc(a1-2)[Gal(a1-3)]Gal(b1-3)GlcNAc(b1-3)GalNAc
# Outline: as §1
# [19] = target: Fuc(a1-2)[Gal(a1-3)]Gal(b1-3)GlcNAc(b1-6)GalNAc
# Outline: as §1
# [20] = target: Fuc(a1-2)[Gal(a1-3)]Gal(b1-4)Glc
# Outline: as §1
# [21] = target: Fuc(a1-2)[Gal(a1-3)]Gal(b1-4)GlcNAc
# Outline: as §1
# [22] = target: Fuc(a1-2)[Gal(a1-3)]Gal(b1-4)GlcNAc(b1-2)Man
# Outline: as §1
# [23] = target: Fuc(a1-2)[Gal(a1-3)]Gal(b1-4)GlcNAc(b1-2)Man(a1-3)[Fuc(a1-2)[Gal(a1-3)]Gal(b1-4)GlcNAc(b1-2)Man(a1-6)]Man(b1-4)GlcNAc(b1-4)GlcNAc
# Outline: as §1
# [24] = target: Fuc(a1-2)[Gal(a1-3)]Gal(b1-4)GlcNAc(b1-2)Man(a1-3)[Fuc(a1-2)[Gal(a1-3)]Gal(b1-4)GlcNAc(b1-2)Man(a1-6)]Man(b1-4)GlcNAc(b1-4)[Fuc(a1-6)]GlcNAc
# Outline: as §1
# [25] = target: Fuc(a1-2)[Gal(a1-3)]Gal(b1-4)GlcNAc(b1-3)GalNAc
# Outline: as §1
# [26] = target: Fuc(a1-2)[Gal(a1-3)]Gal(b1-4)GlcNAc(b1-3)[Fuc(a1-2)[Gal(a1-3)]Gal(b1-4)GlcNAc(b1-6)]GalNAc
# Outline: as §1
# [27] = target: Fuc(a1-2)[Gal(a1-3)]Gal(b1-4)GlcNAc(b1-6)GalNAc
# Outline: as §1
# [28] = target: Fuc(a1-2)[Gal(a1-3)]Gal(b1-4)[Fuc(a1-3)]Glc
# Outline: as §1
# [29] = target: Fuc(a1-2)[Gal(a1-3)]Gal(b1-4)[Fuc(a1-3)]GlcNAc
# Outline: as §1
# [30] = target: Fuc(a1-2)[Gal(a1-3)]Gal(b1-4)[Fuc(a1-3)]GlcNAc(b1-3)GalNAc
# Outline: as §1
# [31] = target: Fuc(a1-2)[Gal(a1-4)]Gal(b1-4)GlcNAc
# Outline: as §1
# [32] = target: Fuc(a1-2)[GalNAc(a1-3)]Gal
# Outline: as §1
# [33] = target: Fuc(a1-2)[GalNAc(a1-3)]Gal(b1-3)GalNAc(a1-3)[Fuc(a1-2)]Gal(b1-4)GlcNAc
# Outline: as §1
# [34] = target: Fuc(a1-2)[GalNAc(a1-3)]Gal(b1-3)GalNAc(b1-3)Gal(a1-4)Gal(b1-4)Glc
# Outline: as §1
# [35] = target: Fuc(a1-2)[GalNAc(a1-3)]Gal(b1-3)GlcNAc
# Outline: as §1
# [36] = target: Fuc(a1-2)[GalNAc(a1-3)]Gal(b1-3)GlcNAc(b1-2)Man(a1-3)[Fuc(a1-2)[GalNAc(a1-3)]Gal(b1-3)GlcNAc(b1-2)Man(a1-6)]Man(b1-4)GlcNAc(b1-4)GlcNAc
# Outline: as §1
# [37] = target: Fuc(a1-2)[GalNAc(a1-3)]Gal(b1-3)GlcNAc(b1-2)Man(a1-3)[Fuc(a1-2)[GalNAc(a1-3)]Gal(b1-3)GlcNAc(b1-2)Man(a1-6)]Man(b1-4)GlcNAc(b1-4)[Fuc(a1-6)]GlcNAc
# Outline: as §1
# [38] = target: Fuc(a1-2)[GalNAc(a1-3)]Gal(b1-3)GlcNAc(b1-3)GalNAc
# Outline: as §1
binder,measurement,setting,value
B1,glycan array binding signal (z-score),[1],-0.63
same,glycan array binding signal (z-score),[2],4.52
same,glycan array binding signal (z-score),[3],-0.653
same,glycan array binding signal (z-score),[4],-0.71
same,glycan array binding signal (z-score),[5],0.185
same,glycan array binding signal (z-score),[6],-0.818
same,glycan array binding signal (z-score),[7],-0.755
same,glycan array binding signal (z-score),[8],-0.876
same,glycan array binding signal (z-score),[9],-0.229
same,glycan array binding signal (z-score),[10],-0.739
same,glycan array binding signal (z-score),[11],0.515
same,glycan array binding signal (z-score),[12],-0.353
same,glycan array binding signal (z-score),[13],0.42
same,glycan array binding signal (z-score),[14],-0.697
same,glycan array binding signal (z-score),[15],0.87
same,glycan array binding signal (z-score),[16],-0.458
same,glycan array binding signal (z-score),[17],1.34
same,glycan array binding signal (z-score),[18],1.58
same,glycan array binding signal (z-score),[19],-1.1
same,glycan array binding signal (z-score),[20],-0.235
same,glycan array binding signal (z-score),[21],-0.392
same,glycan array binding signal (z-score),[22],-1.04
same,glycan array binding signal (z-score),[23],0.768
same,glycan array binding signal (z-score),[24],-1.39
same,glycan array binding signal (z-score),[25],-0.117
same,glycan array binding signal (z-score),[26],1.11
same,glycan array binding signal (z-score),[27],-0.997
same,glycan array binding signal (z-score),[28],-0.221
same,glycan array binding signal (z-score),[29],0.669
same,glycan array binding signal (z-score),[30],-0.796
same,glycan array binding signal (z-score),[31],1.07
same,glycan array binding signal (z-score),[32],-0.035
same,glycan array binding signal (z-score),[33],-1.39
same,glycan array binding signal (z-score),[34],-1
same,glycan array binding signal (z-score),[35],-1.19
same,glycan array binding signal (z-score),[36],-0.629
same,glycan array binding signal (z-score),[37],-0.694
same,glycan array binding signal (z-score),[38],-0.882

# Two entries drawn at random from those above:
binder,measurement,setting,value
B1,glycan array binding signal (z-score),[28],-0.221
same,glycan array binding signal (z-score),[15],0.87
